Results deposited as PubChem BioAssay AID1259314 (Drosophila RNAi Screening Center, 2017)
Purpose: 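Genes whose knock-down alters cell survival under toxic manganese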 (primary screen). System: Drosophila S2R+ cells. Knock-down reagent: long dsRNA against Drosophila genes. Time to read-out: 5 days (4 days knock-down, then 1 day metal exposure). Conditions: manganese chloride added to 15 mM for 24 hours. Read-out: 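Luciferase ATP signal used as a proxy for viable cell number, reported as one averaged z-score per dsRNA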. Direction: mean ATP z-score: higher = more ATP than the plate average, more viable cells under manganese. Hit rule: 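a mean ATP z-score past 1.5 in either direction is called active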. Meaning of the calls: active = strong ATP change, up or down; inactive = no strong ATP change.
Here is a random part of about 3,100 reagents tested. Over the whole deposit, 289 (9.3%) are marked active. 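Active includes both higher and lower ATP than plate average; check the z-score sign for direction.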 Reagents against one gene are numbered here. A plus sign joins genes that one reagent is predicted to hit. Reagent sequences are not shown. The record does not give: the amount of reagent.

gene | reagent no. | mean ATP z-score | Call
Elo68beta (Elongase 68beta) | 1 | 1.43 | inactive
tomboy20 | 1 | -0.636 | inactive
CR12628 + Mgstl | 1 | 3.64 | active
CR12628 + Mgstl | 2 | 2.56 | active
CG2126 | 1 | -0.00696 | inactive
Fur2 (Furin 2) | 1 | -0.49 | inactive
Ir75a (Ionotropic receptor 75a) | 1 | -0.369 | inactive
Ir75a (Ionotropic receptor 75a) | 2 | 2.53 | active
nrv3 (nervana 3) | 1 | 1.86 | active
CG32687 | 1 | 0.55 | inactive
CG32687 | 2 | -0.323 | inactive
CG32687 | 3 | 0.724 | inactive
CG16723 | 1 | 0.665 | inactive
CG16723 | 2 | 1.59 | active
Gr64a (Gustatory receptor 64a) | 1 | -0.739 | inactive
Gr64a (Gustatory receptor 64a) | 2 | 2.82 | active
fz2 (frizzled 2) | 1 | -0.935 | inactive
fz2 (frizzled 2) | 2 | -0.712 | inactive
CG42288 | 1 | 0.259 | inactive
sing (singles bar) | 1 | 0.159 | inactive
sing (singles bar) | 2 | -0.615 | inactive
CG3164 | 1 | -0.828 | inactive
Nrx-IV (Neurexin IV) | 1 | 0.663 | inactive
Nrx-IV (Neurexin IV) | 2 | -0.451 | inactive
Or10a (Odorant receptor 10a) | 1 | 0.0932 | inactive
Or10a (Odorant receptor 10a) | 2 | 0.462 | inactive
Zip48C (Zinc/iron regulated transporter-related protein 48C) | 1 | -1.18 | inactive
Zip48C (Zinc/iron regulated transporter-related protein 48C) | 2 | 0.698 | inactive
ppk5 (pickpocket 5) | 1 | 0.388 | inactive
ppk5 (pickpocket 5) | 2 | -0.123 | inactive
Baldspot | 1 | -0.838 | inactive
kirre (kin of irre) | 1 | -0.00282 | inactive
kirre (kin of irre) | 2 | 0.677 | inactive
cry (cryptochrome) | 1 | -0.733 | inactive
cry (cryptochrome) | 2 | 0.0523 | inactive
aph-1 (anterior pharynx defective 1) | 1 | 0.262 | inactive
aph-1 (anterior pharynx defective 1) | 2 | -0.461 | inactive
NaPi-III (Na[+]-dependent inorganic phosphate cotransporter type III) | 1 | -0.274 | inactive
NaPi-III (Na[+]-dependent inorganic phosphate cotransporter type III) | 2 | 0.736 | inactive
Adgf-A2 (Adenosine deaminase-related growth factor A2) | 1 | 0.467 | inactive
Adgf-A2 (Adenosine deaminase-related growth factor A2) | 2 | -0.448 | inactive
CG32081 | 1 | -1.26 | inactive
CG32081 | 2 | 0.229 | inactive
salt (salty dog) | 1 | 0.14 | inactive
Gr59f (Gustatory receptor 59f) | 1 | 0.351 | inactive
Gr59f (Gustatory receptor 59f) | 2 | -0.537 | inactive
CG32301 | 1 | -0.869 | inactive
CG32301 | 2 | -1.14 | inactive

Already shown: an excerpt of the list.
gene | reagent no. | mean ATP z-score | Call
NaPi-III (Na[+]-dependent inorganic phosphate cotransporter type III) | 1 | -0.274 | inactive
NaPi-III (Na[+]-dependent inorganic phosphate cotransporter type III) | 2 | 0.736 | inactive
Adgf-A2 (Adenosine deaminase-related growth factor A2) | 1 | 0.467 | inactive
Adgf-A2 (Adenosine deaminase-related growth factor A2) | 2 | -0.448 | inactive
CG32081 | 1 | -1.26 | inactive

Continued:
gene | reagent no. | mean ATP z-score | Call
ste24b (ste24b prenyl protease type I) | 1 | -1.26 | inactive
ste24b (ste24b prenyl protease type I) | 2 | -0.64 | inactive
ClC-a (Chloride channel-a) | 1 | -0.533 | inactive
ClC-a (Chloride channel-a) | 2 | 0.746 | inactive
ClC-a (Chloride channel-a) | 3 | -0.701 | inactive
Desat2 (Desaturase 2) | 1 | -0.623 | inactive
Desat2 (Desaturase 2) | 2 | -0.0571 | inactive
kkv (krotzkopf verkehrt) | 1 | -0.511 | inactive
CG9444 | 1 | -0.41 | inactive
VhaM9.7-d (Vacuolar H[+] ATPase M9.7 subunit d) | 1 | 0.105 | inactive
Prestin | 1 | -2.56 | active
Or49b (Odorant receptor 49b) | 1 | -0.57 | inactive
CG3803 | 1 | 0.535 | inactive
brv2 (brivido-2) | 1 | -0.0442 | inactive
brv2 (brivido-2) | 2 | 0.246 | inactive
CG5104 | 1 | 0.756 | inactive
CG5104 | 2 | 2.83 | active
CG6836 | 1 | 0.529 | inactive
CG6836 | 2 | 0.0643 | inactive
Or65b (Odorant receptor 65b) | 1 | 0.0886 | inactive
Or65b (Odorant receptor 65b) | 2 | 0.689 | inactive
Vha100-5 (Vacuolar H[+] ATPase 100kD subunit 5) | 1 | -0.184 | inactive
Vha100-5 (Vacuolar H[+] ATPase 100kD subunit 5) | 2 | 0.44 | inactive
sns (sticks and stones) | 1 | -1.4 | inactive
sns (sticks and stones) | 2 | -0.8 | inactive
Gr98a (Gustatory receptor 98a) | 1 | 0.0865 | inactive
ATP8B (ATPase 8B) | 1 | -0.179 | inactive
